In patent US20230295116A1, “PROTEASOME ENHANCERS AND USES THEREOF” (Board of Trustees of Michigan State University, priority 2020, published 2023):
Some results were stated once for a whole list of compounds, not compound by compound.

Sequences of proteins named here, by UniProt entry; tags and fusion partners are left off. A change or cut given only in a name is not applied to a line headed by its entry.
UniProt P25787: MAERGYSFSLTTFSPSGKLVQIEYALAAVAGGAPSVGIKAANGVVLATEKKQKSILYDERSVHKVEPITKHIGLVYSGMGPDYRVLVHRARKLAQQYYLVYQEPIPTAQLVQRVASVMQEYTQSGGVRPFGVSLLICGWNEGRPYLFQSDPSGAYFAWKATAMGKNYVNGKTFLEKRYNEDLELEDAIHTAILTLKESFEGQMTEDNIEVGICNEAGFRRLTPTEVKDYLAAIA
UniProt P60900: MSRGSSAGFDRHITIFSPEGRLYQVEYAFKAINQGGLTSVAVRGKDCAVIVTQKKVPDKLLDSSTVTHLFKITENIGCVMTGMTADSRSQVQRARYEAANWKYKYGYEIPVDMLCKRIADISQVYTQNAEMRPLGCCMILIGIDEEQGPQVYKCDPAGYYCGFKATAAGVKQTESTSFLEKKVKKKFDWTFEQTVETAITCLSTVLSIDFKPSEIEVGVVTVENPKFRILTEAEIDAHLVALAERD

Target: T1, human 20S proteasome (Homo sapiens, UniProt P25787+P60900)
T1 construct: purchased Boston Biochem, Inc. (Cambridge, MA)
Assay: In vitro purified α-synuclein degradation assay (silver stain)
Format: biochemical
Settings: concentrations near AC200; p<0.001; vs vehicle control

Structure (SMILES): COc1ccc(CC(=O)N2CCC(Nc3nc4ccccc4n3Cc3ccc(F)cc3)CC2)cc1 [Compound 2, 1-(4-((1-(4-fluorobenzyl)-1H-benzo[d]imidazol-2-yl)amino)piperidin-1-yl)-2-(4-methoxyphenyl)ethan-1-one]
- decrease in α-syn: > 50%
